The text below walks through data of the supplement of paper PMC12823440, “Inhibitors supercharge kinase turnover through native proteolytic circuits” (Nature, 2025).

Sequences of proteins named here, by UniProt entry; tags and fusion partners are left off. A change or cut given only in a name is not applied to a line headed by its entry.
UniProt Q15208: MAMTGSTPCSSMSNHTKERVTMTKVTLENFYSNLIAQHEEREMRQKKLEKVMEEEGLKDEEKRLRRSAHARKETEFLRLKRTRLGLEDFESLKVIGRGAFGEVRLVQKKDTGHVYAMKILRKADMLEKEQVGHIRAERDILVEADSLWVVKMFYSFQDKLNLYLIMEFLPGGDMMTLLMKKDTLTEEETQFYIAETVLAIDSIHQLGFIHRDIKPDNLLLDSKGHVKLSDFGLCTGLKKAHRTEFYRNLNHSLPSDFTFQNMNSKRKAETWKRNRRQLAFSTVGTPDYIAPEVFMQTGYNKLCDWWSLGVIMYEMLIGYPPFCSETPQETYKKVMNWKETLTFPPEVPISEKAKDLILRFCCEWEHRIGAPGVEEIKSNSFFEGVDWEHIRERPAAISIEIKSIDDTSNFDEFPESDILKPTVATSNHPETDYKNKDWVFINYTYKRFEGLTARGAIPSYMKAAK
UniProt P42680: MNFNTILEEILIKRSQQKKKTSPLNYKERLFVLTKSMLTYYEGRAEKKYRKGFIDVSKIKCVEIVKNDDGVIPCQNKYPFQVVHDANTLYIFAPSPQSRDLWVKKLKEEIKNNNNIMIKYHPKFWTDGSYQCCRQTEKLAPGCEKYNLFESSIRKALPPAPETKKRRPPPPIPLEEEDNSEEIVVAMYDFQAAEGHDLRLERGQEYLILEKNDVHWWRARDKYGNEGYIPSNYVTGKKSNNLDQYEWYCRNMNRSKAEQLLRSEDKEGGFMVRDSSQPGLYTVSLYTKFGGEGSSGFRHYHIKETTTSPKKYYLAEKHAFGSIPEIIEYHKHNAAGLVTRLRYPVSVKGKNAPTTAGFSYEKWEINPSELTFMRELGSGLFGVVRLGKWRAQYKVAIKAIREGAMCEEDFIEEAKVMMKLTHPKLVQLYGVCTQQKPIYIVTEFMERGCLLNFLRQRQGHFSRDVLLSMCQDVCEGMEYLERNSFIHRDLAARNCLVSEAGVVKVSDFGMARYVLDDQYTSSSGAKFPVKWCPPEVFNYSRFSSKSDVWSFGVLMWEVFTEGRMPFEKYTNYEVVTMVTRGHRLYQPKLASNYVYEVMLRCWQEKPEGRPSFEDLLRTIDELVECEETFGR
UniProt P29597: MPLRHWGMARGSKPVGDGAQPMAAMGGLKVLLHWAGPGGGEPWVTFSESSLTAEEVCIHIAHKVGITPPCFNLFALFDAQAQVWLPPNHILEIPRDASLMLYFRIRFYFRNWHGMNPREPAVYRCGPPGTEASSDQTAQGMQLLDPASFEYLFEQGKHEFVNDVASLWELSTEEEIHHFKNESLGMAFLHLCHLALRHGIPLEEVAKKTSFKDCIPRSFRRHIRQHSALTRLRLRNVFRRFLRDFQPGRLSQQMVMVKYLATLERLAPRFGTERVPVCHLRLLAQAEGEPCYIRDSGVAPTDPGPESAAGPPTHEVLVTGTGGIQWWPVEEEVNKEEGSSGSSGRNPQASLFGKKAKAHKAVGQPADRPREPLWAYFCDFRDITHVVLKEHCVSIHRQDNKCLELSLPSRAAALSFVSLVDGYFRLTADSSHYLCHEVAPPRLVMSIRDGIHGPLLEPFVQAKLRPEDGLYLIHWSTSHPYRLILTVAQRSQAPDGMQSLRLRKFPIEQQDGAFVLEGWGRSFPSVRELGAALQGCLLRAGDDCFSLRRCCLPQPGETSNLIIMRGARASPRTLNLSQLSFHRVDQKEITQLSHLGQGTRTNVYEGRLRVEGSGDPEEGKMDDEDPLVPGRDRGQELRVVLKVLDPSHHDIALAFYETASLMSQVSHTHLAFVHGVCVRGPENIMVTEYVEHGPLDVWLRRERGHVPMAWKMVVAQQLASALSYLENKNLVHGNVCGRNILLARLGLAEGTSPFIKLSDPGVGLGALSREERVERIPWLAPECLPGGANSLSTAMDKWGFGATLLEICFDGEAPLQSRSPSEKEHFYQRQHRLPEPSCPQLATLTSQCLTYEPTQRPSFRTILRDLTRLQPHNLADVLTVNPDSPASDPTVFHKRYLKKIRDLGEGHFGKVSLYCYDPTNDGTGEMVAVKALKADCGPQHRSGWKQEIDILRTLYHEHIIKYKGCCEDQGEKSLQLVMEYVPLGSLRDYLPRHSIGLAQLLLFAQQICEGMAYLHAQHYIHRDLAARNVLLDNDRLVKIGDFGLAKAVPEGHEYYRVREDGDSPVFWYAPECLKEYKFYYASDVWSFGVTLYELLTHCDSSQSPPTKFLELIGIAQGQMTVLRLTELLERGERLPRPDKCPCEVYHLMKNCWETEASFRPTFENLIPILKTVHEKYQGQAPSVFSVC
UniProt Q6PHR2: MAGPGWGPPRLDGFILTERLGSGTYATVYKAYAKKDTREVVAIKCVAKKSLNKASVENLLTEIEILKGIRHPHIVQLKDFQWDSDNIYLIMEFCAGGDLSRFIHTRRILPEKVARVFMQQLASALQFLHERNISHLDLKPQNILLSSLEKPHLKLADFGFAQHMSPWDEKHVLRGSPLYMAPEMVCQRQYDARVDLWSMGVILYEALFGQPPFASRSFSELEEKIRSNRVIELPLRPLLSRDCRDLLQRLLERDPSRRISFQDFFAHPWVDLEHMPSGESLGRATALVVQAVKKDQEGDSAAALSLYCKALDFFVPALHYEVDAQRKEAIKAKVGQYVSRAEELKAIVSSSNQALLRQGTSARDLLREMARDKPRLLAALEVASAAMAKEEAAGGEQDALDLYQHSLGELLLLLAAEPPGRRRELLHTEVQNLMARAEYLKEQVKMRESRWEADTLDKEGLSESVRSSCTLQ
UniProt P07947, whole entry, looked up: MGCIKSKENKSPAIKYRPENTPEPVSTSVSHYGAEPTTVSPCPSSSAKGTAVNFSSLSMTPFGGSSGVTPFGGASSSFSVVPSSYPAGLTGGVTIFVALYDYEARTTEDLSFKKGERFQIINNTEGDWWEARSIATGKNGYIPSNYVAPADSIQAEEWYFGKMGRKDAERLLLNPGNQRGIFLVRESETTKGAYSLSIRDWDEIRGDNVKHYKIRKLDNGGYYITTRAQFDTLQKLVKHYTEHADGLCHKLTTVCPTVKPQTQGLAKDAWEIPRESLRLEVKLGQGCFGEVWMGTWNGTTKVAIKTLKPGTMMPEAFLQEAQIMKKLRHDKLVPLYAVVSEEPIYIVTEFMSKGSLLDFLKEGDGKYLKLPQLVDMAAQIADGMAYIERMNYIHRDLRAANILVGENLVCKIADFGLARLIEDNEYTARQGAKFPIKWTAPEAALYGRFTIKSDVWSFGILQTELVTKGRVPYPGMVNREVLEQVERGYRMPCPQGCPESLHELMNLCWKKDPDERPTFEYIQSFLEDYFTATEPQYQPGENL
UniProt P43403: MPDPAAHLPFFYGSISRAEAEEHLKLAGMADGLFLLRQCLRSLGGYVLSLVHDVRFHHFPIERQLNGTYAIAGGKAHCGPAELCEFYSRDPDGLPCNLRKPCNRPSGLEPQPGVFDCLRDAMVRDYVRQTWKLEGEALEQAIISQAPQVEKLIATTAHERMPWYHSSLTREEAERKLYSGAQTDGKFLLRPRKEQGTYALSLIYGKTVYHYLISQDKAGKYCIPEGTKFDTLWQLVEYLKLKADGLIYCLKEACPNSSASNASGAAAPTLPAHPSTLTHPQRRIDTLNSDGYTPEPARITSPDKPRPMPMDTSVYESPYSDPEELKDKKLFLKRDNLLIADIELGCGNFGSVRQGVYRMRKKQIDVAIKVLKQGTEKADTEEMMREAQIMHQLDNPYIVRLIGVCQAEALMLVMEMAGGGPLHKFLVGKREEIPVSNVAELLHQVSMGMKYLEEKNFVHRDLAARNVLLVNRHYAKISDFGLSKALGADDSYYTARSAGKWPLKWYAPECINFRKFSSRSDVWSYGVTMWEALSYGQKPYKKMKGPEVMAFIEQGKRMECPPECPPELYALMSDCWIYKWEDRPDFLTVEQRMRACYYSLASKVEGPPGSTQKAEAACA
UniProt P00519, whole entry: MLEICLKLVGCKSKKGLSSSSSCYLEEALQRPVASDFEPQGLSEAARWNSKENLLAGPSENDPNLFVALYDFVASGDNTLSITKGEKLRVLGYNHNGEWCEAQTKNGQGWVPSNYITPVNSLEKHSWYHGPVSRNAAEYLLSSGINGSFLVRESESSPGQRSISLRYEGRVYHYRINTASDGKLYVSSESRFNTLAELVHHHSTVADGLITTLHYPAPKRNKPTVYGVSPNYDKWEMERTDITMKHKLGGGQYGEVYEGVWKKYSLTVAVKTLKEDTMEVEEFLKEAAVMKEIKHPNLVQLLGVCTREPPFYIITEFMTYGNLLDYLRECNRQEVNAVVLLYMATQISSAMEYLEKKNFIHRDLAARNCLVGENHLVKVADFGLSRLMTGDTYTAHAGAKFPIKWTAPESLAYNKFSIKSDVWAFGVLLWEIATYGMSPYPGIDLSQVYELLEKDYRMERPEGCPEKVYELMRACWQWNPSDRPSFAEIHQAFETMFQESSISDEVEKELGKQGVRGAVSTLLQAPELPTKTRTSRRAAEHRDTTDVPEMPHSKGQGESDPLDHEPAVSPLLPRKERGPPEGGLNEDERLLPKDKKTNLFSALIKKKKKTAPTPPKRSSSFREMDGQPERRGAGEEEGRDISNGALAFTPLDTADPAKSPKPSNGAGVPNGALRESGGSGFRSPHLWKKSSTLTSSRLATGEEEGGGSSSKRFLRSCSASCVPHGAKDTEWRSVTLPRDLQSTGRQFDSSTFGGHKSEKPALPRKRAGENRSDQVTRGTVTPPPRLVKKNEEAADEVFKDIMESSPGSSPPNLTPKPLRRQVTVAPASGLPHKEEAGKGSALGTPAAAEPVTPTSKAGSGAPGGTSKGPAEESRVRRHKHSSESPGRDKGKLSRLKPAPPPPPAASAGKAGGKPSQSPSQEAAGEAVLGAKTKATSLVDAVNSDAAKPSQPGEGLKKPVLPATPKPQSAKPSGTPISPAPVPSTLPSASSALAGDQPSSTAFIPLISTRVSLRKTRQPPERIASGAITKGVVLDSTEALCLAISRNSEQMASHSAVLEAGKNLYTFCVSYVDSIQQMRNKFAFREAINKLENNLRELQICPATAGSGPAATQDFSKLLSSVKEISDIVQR
UniProt P31749: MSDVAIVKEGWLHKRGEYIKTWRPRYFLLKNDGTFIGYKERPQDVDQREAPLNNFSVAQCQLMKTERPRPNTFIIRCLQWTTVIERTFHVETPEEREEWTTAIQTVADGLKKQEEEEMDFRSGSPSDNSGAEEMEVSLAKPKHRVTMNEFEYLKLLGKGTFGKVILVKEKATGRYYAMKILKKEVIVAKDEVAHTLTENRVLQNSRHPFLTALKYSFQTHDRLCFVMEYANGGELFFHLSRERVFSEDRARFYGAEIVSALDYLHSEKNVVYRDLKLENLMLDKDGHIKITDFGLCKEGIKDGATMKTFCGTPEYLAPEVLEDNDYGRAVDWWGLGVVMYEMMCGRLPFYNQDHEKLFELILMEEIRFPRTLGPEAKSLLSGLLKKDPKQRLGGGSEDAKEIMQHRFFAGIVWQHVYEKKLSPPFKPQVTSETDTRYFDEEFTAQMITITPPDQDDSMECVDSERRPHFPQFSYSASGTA

The other results are listed elsewhere or left out. Hit calls seldom repeat between salt and free forms of one compound.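 In K562 cells expressing nanoluciferase-fused kinases, luminescence was recorded at 4 h intervals between 2 and 18 h, normalized as percent of control with DMSO at 100% and a positive control at 0%. A significant (2 sigma) signal drop marks a time point as decreased. The authors' rule for a hit is not shown and takes in more than the number of time points.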

Holding throughout (details): K562; 2-18 h
Test [1] has as its target STK38 (UniProt Q15208). Kind of test: kinase-Nluc reporter destabilization hit call (1 = scored as downregulated) (binary); higher = compound decreases kinase abundance.
In test [2] the target is SYK (UniProt P43405). The test is described as above.
In test [3] the target is TEC (UniProt P42680). Described as above.
For test [4], the target named is TYK2 (UniProt P29597). The test is described as above.
For test [5], the target named is ULK3 (UniProt Q6PHR2). Described as above.
Test [6] addresses YES1 (UniProt P07947). The test is described as above.
For test [7], the target named is ZAK (UniProt Q9NYL2). The test is described as above.
Test [8] deals with ZAP70 (UniProt P43403). Described as above.
Test [9] concerns the target ABL1 (UniProt P00519). Kind of test: number of time points (of 5) at which kinase-Nluc abundance scored as decreased, DMSO-normalised (count); higher = more persistent destabilization.
The target of test [10] is AKT1 (UniProt P31749). The description is as above.

Take `CS(=O)(=O)c1ccc([C@@H](CC2CCCC2)C(=O)Nc2nccs2)cc1` (10 µM): the “kinase-Nluc reporter destabilization hit call” value in test [1], in test [2], in [3], in test [4], in test [5] and in [6] was inactive: 0 in each case. Also, the “kinase-Nluc reporter destabilization hit call” value in test [7] and in test [8] was inactive: 0 each time. For the same compound, the “number of time points” value in test [9] and in test [10] was 0 in each case.
For the compound `CNc1cc2c(Nc3cccc(Br)c3)ncnc2cn1` (10 µM), the “kinase-Nluc reporter destabilization hit call” value in [1], in [2], in test [3], in test [4], in [5] and in test [6] was inactive: 0 throughout. The “kinase-Nluc reporter destabilization hit call” value in test [7] and in test [8] was inactive: 0 in each case. The “number of time points” value in test [9] and in test [10] was 0 in each case.
Consider `O=C(CCl)c1c[nH]c2ccccc12` (2.5 µM), for which the “kinase-Nluc reporter destabilization hit call” value in test [1], in test [2], in [3], in [4], in test [5] and in test [6] was inactive: 0 throughout. Besides, the “kinase-Nluc reporter destabilization hit call” value in test [7] and in test [8] was inactive: 0 each time. The “number of time points” value in test [9] and in [10] was 0 in each case.
`CCCCC(=O)OCC(=O)[C@]1(O)Cc2c(O)c3c(c(O)c2[C@@H](O[C@H]2C[C@H](NC(=O)C(F)(F)F)[C@H](O)[C@H](C)O2)C1)C(=O)c1c(OC)cccc1C3=O` [Valrubicin] (10 µM): the “kinase-Nluc reporter destabilization hit call” value in [1], in [2], in [3], in test [4], in [5] and in test [6] was inactive: 0 each time. The “kinase-Nluc reporter destabilization hit call” value in test [7] and in test [8] was inactive: 0 each time. Besides, the “number of time points” value in test [9] and in test [10] was 0 throughout.
As to `COc1ccc2cc1Oc1ccc(cc1)C[C@H]1c3cc(c(OC)cc3CCN1C)Oc1c(O)c(OC)cc3c1[C@H](C2)N(C)CC3` [Fangchinoline] (2.5 µM), the “kinase-Nluc reporter destabilization hit call” value in [1], in test [2], in test [3], in [4], in test [5] and in test [6] was inactive: 0 throughout. In addition, the “kinase-Nluc reporter destabilization hit call” value in test [7] and in test [8] was inactive: 0 each time. Further, the “number of time points” value in [9] and in [10] was 0 each time.
Turning to `O=CN1CCN(c2ccc(C=C3C(=O)Nc4ccccc43)cc2)CC1` (10 µM), the “kinase-Nluc reporter destabilization hit call” value in test [1], in test [2], in test [3], in test [4], in [5] and in test [6] was inactive: 0 each time. For the same compound, the “kinase-Nluc reporter destabilization hit call” value in test [7] and in [8] was inactive: 0 in each case. Besides, the “number of time points” value in test [9] and in test [10] was 0 in each case.
On to `CNCc1cc(Oc2ccc3c(ccn3C(=O)Nc3cc(C(F)(F)F)n(C)n3)c2)ncn1` [Acrizanib] (10 µM), for which the “kinase-Nluc reporter destabilization hit call” value in [1], in [2], in test [3], in test [4], in test [5] and in test [6] was inactive: 0 each time. In addition, the “kinase-Nluc reporter destabilization hit call” value in [7] and in [8] was inactive: 0 throughout. For the same compound, the “number of time points” value in [9] and in test [10] was 0 in each case.
Turning to `CCCCNc1ncc2c(-c3ccc(F)cc3)nn(CC3CCC(N)CC3)c2n1` (stereo not given) (2.5 µM), the “kinase-Nluc reporter destabilization hit call” value in test [1], in [2], in test [3], in test [4], in [5] and in test [6] was inactive: 0 throughout. The “kinase-Nluc reporter destabilization hit call” value in test [7] and in test [8] was inactive: 0 throughout. Moreover, the “number of time points” value in [9] and in [10] was 0 in each case.
As to `NCCNS(=O)(=O)c1ccc(Cl)c2ccncc12` [CKI-7 (free base)] (10 µM), the “kinase-Nluc reporter destabilization hit call” value in test [1], in test [2], in test [3], in test [4], in [5] and in test [6] was inactive: 0 throughout. Moreover, the “kinase-Nluc reporter destabilization hit call” value in [7] and in test [8] was inactive: 0 in each case. Further, the “number of time points” value in test [9] and in [10] was 0 each time.
In the case of `C[C@@H]1CN(Cc2ccc(F)cc2)[C@@H](C)CN1C(=O)c1cc2c(C(=O)C(=O)N(C)C)cn(C)c2cc1Cl` [Talmapimod] (10 µM), the “kinase-Nluc reporter destabilization hit call” value in [1], in test [2], in test [3], in test [4], in test [5] and in test [6] was inactive: 0 each time. Further, the “kinase-Nluc reporter destabilization hit call” value in test [7] and in [8] was inactive: 0 each time. Besides, the “number of time points” value in test [9] and in [10] was 0 each time.
On to `Nc1ccc(-c2cccc(C(=O)Nc3cnc4nc(N5CCOCC5)oc4c3)n2)cn1` (10 µM), for which the “kinase-Nluc reporter destabilization hit call” value in test [1], in test [2], in test [3], in test [4], in test [5] and in test [6] was inactive: 0 each time. For the same compound, the “kinase-Nluc reporter destabilization hit call” value in test [7] and in [8] was inactive: 0 in each case. Also, the “number of time points” value in [9] and in test [10] was 0 throughout.
As to `CN1C(=O)N[C@@H](Cc2c[nH]c3c(Cl)cccc23)C1=O` [Necrostatin 2 (S enantiomer)] (10 µM), the “kinase-Nluc reporter destabilization hit call” value in test [1], in [2], in test [3], in test [4], in test [5] and in [6] was inactive: 0 throughout. In addition, the “kinase-Nluc reporter destabilization hit call” value in test [7] and in [8] was inactive: 0 throughout. For the same compound, the “number of time points” value in test [9] and in test [10] was 0 in each case.
As to `CC1=C(C#N)C(c2ccc3[nH]nc(C)c3c2)C(C#N)=C(C)N1` (10 µM), the “kinase-Nluc reporter destabilization hit call” value in [1], in test [2], in test [3], in test [4], in test [5] and in test [6] was inactive: 0 each time. Besides, the “kinase-Nluc reporter destabilization hit call” value in test [7] and in test [8] was inactive: 0 throughout. Also, the “number of time points” value in test [9] and in test [10] was 0 throughout.
In the case of `COc1cc(N2CCC(N3CCN(C)CC3)CC2)ccc1Nc1ncnc(Nc2ccccc2S(=O)(=O)C(C)C)n1` (10 µM), the “kinase-Nluc reporter destabilization hit call” value in test [1], in test [2], in test [3], in [4], in [5] and in test [6] was inactive: 0 throughout. Besides, the “kinase-Nluc reporter destabilization hit call” value in test [7] and in [8] was inactive: 0 in each case. The “number of time points” value in [9] and in test [10] was 0 each time.
Consider `N#Cc1cc(N2CCC(C(=O)N3N=CC[C@H]3c3cc(F)cc(F)c3)CC2)ncn1` (10 µM), for which the “kinase-Nluc reporter destabilization hit call” value in [1], in [2], in test [3], in [4], in test [5] and in test [6] was inactive: 0 throughout. The “kinase-Nluc reporter destabilization hit call” value in [7] and in test [8] was inactive: 0 in each case. Moreover, the “number of time points” value in [9] and in [10] was 0 each time.
